Test results published in article PMC6998106.
No constants are given. Whether binding was seen depends on the method and setting. In cells and extracts the contact can be indirect. Each block holds one substance with its values, some of them ahead of it.

Chains of the proteins cited; added tags and fusions are not shown.
UniProt P10275: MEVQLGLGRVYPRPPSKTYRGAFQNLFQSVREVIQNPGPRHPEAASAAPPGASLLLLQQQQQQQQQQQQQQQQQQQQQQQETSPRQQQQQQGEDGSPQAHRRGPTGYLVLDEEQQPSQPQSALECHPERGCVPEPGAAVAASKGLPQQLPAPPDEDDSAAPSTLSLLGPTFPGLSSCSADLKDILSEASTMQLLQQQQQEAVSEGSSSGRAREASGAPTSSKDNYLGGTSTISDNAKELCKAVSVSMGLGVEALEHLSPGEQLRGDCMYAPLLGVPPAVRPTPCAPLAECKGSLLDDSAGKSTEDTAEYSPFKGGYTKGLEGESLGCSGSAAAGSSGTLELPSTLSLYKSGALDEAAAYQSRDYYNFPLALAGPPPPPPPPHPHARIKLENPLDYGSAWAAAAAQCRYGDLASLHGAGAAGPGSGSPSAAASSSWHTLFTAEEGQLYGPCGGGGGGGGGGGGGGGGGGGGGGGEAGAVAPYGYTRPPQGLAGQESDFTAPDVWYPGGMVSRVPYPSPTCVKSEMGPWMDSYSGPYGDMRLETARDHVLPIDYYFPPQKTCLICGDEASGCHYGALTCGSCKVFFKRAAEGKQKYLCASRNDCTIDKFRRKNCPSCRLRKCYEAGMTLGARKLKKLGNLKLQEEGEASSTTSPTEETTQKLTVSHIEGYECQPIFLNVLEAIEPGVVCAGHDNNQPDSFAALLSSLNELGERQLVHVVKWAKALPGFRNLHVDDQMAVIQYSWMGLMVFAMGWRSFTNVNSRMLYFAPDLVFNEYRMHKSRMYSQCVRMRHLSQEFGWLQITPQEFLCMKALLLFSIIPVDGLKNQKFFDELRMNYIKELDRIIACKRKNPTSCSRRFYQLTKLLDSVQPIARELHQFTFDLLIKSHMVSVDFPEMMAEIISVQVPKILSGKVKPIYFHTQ
UniProt Q9NRC8: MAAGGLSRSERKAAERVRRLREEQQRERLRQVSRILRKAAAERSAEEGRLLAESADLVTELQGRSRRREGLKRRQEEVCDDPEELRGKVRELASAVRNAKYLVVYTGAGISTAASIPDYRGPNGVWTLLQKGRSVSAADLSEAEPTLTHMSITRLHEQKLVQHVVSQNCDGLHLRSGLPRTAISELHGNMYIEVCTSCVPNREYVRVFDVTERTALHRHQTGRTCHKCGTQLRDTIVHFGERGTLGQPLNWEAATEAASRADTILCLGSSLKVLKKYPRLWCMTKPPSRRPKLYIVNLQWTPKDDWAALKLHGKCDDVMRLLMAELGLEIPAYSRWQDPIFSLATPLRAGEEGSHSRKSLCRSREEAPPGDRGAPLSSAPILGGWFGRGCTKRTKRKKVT

Experiments:
Myc-AR = Myc-AR (UniProt P10275); test: co-IP; tagged proteins Myc-AR and FLAG-SIRT7; precipitated with anti-myc or anti-FLAG, immunoblots; cell line not stated
FLAG-SIRT7 = FLAG-SIRT7 (UniProt Q9NRC8); test: as above
[1] = biological target: Sirtuin-7 (SIRT7), endogenous (human (endogenous in 22Rv1)) (UniProt Q9NRC8); test: co-IP; endogenous proteins of 22Rv1 cells; Pierce IP lysis/wash buffer with protease inhibitors; lysates with anti-SIRT7 or anti-SMAD4 antibodies or control IgG at 4 °C overnight, magnetic beads, western blotting

binding (Myc-AR): no binding
Substance: FLAG-SIRT7 (from UniProt Q9NRC8 1-400) (enzyme)

binding (FLAG-SIRT7): no binding
Substance: Myc-AR (from UniProt P10275 1-920) (receptor)

binding [1]: no binding
Substance: Androgen receptor (AR), endogenous (from UniProt P10275 1-920)
